Experimental data taken from PubChem BioAssay AID1671190 (National Center for Advancing Translational Sciences (NCATS), 2021).
Hit rate of the full screen: of about 580,000 compounds, about 6,100 (1.1%) were called active. This list was built around the results that the source calls inconclusive (neither active nor inactive); the mix of calls is not that of the screen. Calls follow the shape of the dose curve; as a rule, active = well fitted inhibition curve with a large enough effect; inconclusive = small, poorly fitted or top-dose-only effect, or another doubt; inactive = no such curve, though single readings can be large or run the other way. Potencies beside an inconclusive call are fits to weak or partial responses and may not hold up.

Sequences of proteins named here, by UniProt entry; tags and fusion partners are left off. A change or cut given only in a name is not applied to a line headed by its entry.
UniProt P18054: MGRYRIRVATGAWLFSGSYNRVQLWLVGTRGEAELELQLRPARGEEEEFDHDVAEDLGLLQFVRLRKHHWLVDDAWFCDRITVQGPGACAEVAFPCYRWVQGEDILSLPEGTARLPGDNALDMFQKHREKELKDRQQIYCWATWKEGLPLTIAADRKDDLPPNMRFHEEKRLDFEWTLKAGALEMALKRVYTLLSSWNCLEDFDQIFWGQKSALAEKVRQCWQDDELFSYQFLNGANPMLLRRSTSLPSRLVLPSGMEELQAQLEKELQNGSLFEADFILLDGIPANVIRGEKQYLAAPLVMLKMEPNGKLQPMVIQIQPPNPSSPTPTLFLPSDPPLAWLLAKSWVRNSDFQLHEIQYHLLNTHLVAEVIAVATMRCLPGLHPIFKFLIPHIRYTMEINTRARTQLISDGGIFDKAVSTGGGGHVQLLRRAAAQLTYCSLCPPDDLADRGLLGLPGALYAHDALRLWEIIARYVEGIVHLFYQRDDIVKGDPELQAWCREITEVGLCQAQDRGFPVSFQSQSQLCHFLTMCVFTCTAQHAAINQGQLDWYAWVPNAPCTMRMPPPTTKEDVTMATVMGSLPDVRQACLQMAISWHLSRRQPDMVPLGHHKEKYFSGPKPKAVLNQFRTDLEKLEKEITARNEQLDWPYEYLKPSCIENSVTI

target: Polyunsaturated fatty acid lipoxygenase ALOX12 (Homo sapiens) (UniProt P18054); experiment: Primary qHTS assay for inhibitors of human arachidonate 12S-lipoxygenase (ALOX12): Round 2; conditions: purified 12hLO, xylenol orange hydroperoxide absorbance; series mostly up to 108 µM
Method in brief: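 Hydroperoxide product was detected by ferrous iron/xylenol orange as the 573 to 405 nm absorbance ratio. Arachidonic acid at 40 uM (final) was turned over for 30 min at room temperature by 150 nM human 12hLO, pH 7.0 Hepes buffer, after 15 min compound preincubation.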
Potency is read from the fitted curve at half-maximal effect.

Row | SMILES | Potency
1 | Cc1ccccc1/C=C/C1=NCCN1 | inconclusive: 1 µM [inhibitor, full curve, poor fit]
2 | N#C/C(=C/c1ccc(N(c2ccccc2)c2ccccc2)cc1)C(=O)Nc1cccc(C(F)(F)F)c1 | inconclusive: 39.8 µM [inhibitor, full curve, poor fit]
3 | COc1ccc(N2CCN(C(=O)CCCn3c(=O)[nH]c4cc(Cl)ccc4c3=O)CC2)cc1 | inconclusive: 112 µM [inhibitor, single point]
4 | CCC(=O)N1CCc2c(C(=O)O)cccc21 | inconclusive: 22.4 µM [inhibitor, full curve, poor fit]
5 | CN1CCN(c2ccc(C(CC(N)=O)NC(=O)Cc3cccc4ccccc34)cc2[N+](=O)[O-])CC1 (stereo unspecified) | inconclusive: 8.91 µM [inhibitor, partial curve, poor fit]
6 | CC(=O)C12CC3CC(C1)CC(C(=O)O)(C3)C2 | inactive
7 | O=C(CCC(=O)c1ccc(Cl)cc1)OCc1ccc(Cl)cc1Cl | inconclusive: 1.41 µM [inhibitor, partial curve, poor fit]
8 | CS(=O)(=O)N1CCc2ccc(C(=O)NCc3ccc(N4CCCCC4)cc3)cc21 | inconclusive: 79.4 µM [inhibitor, single point]
9 | Cc1ccccc1NC(=O)CSC1=Nc2ccccc2C2=NC(Cc3ccccc3)C(=O)N12 (stereo unspecified) | inconclusive: 100 µM [inhibitor, partial curve, poor fit]
10 | CCN(CC)S(=O)(=O)c1cccc(-c2nnc(SCc3nnc(-c4cccs4)o3)n2N)c1 | inactive
11 | CC(OC(=O)Cn1[nH]c(=O)c2ccccc2c1=O)C(=O)Nc1ccccc1F (stereo unspecified) | inconclusive: 0.562 µM [inhibitor, full curve, poor fit]
12 | Cc1cc(NC(=O)COC(=O)C2CSC3(C)CCC(=O)N23)ccc1Br (stereo unspecified) | inactive
13 | COc1ccc(C)cc1NC(=O)C1CC(=O)N(c2n[nH]c3cc(Br)ccc23)C1 (stereo unspecified) | inconclusive: 79.4 µM [inhibitor, single point]
14 | CCC(Sc1ncc(S(=O)(=O)c2ccc(Cl)cc2)c(=O)[nH]1)C(=O)Nc1ccc(OC)cc1 (stereo unspecified) | inconclusive: 50.1 µM [inhibitor, partial curve, poor fit]
15 | CCOC(=O)c1sc(N)c(C#N)c1COC(=O)C1CCC1 | inactive
16 | CC(C)(C)CC(=O)Nc1nnc(C2CC(=O)N(c3ccc(Cl)cc3)C2)s1 (stereo unspecified) | inactive
17 | CS(=O)(=O)N1CCCC(C(=O)Nc2ccc(F)cc2)C1 (stereo unspecified) | inactive
18 | COc1ccc(Cl)cc1NC(=O)CSc1nnc2[nH]c(=O)cc(-c3ccccc3)n12 | inactive
19 | COc1cccc(CNCc2cccc(OC)c2O)c1O | inconclusive: 20 µM [inhibitor, full curve]
20 | C=CCNC(=O)c1ccccc1NC(=O)C1CC(=O)N(C(C)C)C1 (stereo unspecified) | inconclusive: 31.6 µM [inhibitor, partial curve, poor fit]
21 | CC(=O)NCC(=O)N(c1ccc(C)cc1)C1(C(=O)Nc2c(C)cccc2C)CCCCC1 | inactive

A second format for part of the listing above:
Row,SMILES,Potency
11,CC(OC(=O)Cn1[nH]c(=O)c2ccccc2c1=O)C(=O)Nc1ccccc1F (stereo unspecified),"inconclusive: 0.562 µM [inhibitor, full curve, poor fit]"
12,Cc1cc(NC(=O)COC(=O)C2CSC3(C)CCC(=O)N23)ccc1Br (stereo unspecified),inactive

Next part

Row | SMILES | Potency
22 | Cc1ccc2[nH]c(=O)c3cc(C(=O)N(CCCOC(C)C)Cc4ccco4)sc3c2c1 | inconclusive: 8.91 µM [inhibitor, partial curve, poor fit]
23 | CCOc1ccc(C2C3=C(CCCC3=O)Nc3ccc4ncccc4c32)cc1 (stereo unspecified) | inconclusive: 50.1 µM [inhibitor, partial curve, poor fit]
24 | O=C(O)CCCn1nc(-c2ccccc2)c2ccccc21 | inactive
25 | COc1ccccc1N1CCN(C(=O)c2ccc3c(=O)n(Cc4ccco4)c(=S)[nH]c3c2)CC1 | inconclusive: 2.51 µM [inhibitor, full curve, poor fit]
26 | O=C(Cc1ccsc1)Nc1cnc(-c2ccccc2)nc1 | inconclusive: 50.1 µM [inhibitor, partial curve, poor fit]
27 | Cc1cc(N2CCNC[C@@H]2C)ccc1N1CCS(=O)(=O)CC1 | inconclusive: 50.1 µM [inhibitor, partial curve, poor fit]
28 | CC(CCc1ccccc1)NCc1ccco1 (stereo unspecified) | inconclusive: 0.501 µM [inhibitor, full curve, poor fit]
29 | O=C(CCSc1ccccn1)Nc1ccc(Br)cc1 | inactive
30 | CCC(c1nnnn1C1CCCC1)N(Cc1cccs1)Cc1cc2cc(C)ccc2[nH]c1=O (stereo unspecified) | inconclusive: 39.8 µM [inhibitor, partial curve, poor fit]
31 | CCN(CC)S(=O)(=O)c1ccc(N2CCOCC2)c(NC(=O)C2=COCCO2)c1 | inconclusive: 44.7 µM [inhibitor, partial curve, poor fit]
32 | CCC1(C2CCN(Cc3c(C)[nH]c4ccccc34)CC2)NC(=O)N(Cc2ccc3c(c2)OCO3)C1=O (stereo unspecified) | inconclusive: 141 µM [inhibitor, single point]
33 | O=C(NC(=S)NCCc1ccccn1)c1ccccc1 | inconclusive: 126 µM [inhibitor, single point]
34 | COc1cccc(/C(O)=C2/C(=O)C(=O)N(c3cc(C)on3)C2c2cccs2)c1 (stereo unspecified) | inconclusive: 35.5 µM [inhibitor, partial curve, poor fit]
35 | Cc1ccc(F)cc1NC(=O)c1cccc(N(C)C)c1 | inconclusive: 35.5 µM [inhibitor, partial curve, poor fit]
36 | C[N+]1(CCOS(=O)C23CC4CC(CC(C4)C2)C3)CCOCC1 (stereo unspecified) | inconclusive: 3.55 µM [inhibitor, full curve, poor fit]
37 | COc1ccccc1N1CCN(C(=O)c2cccc(N3C(=O)NC4CC3(C)Oc3ccccc34)c2)CC1 (stereo unspecified) | inconclusive: 56.2 µM [inhibitor, partial curve, poor fit]
38 | CC1(C)C(=O)N(c2ccccc2)C1c1ccccc1O (stereo unspecified) | inactive
39 | Cc1nn(C(C)C(=O)N/N=C/c2ccc(N(C)C)cc2)c(C)c1[N+](=O)[O-] (stereo unspecified) | inactive
40 | Cc1ccc(N(C)c2nc(N)nc(N)c2N=O)cc1 | inactive
41 | CCc1ccc(N2CC(C(=O)Nc3ccc(S(=O)(=O)N4CCOCC4)cc3)CC2=O)cc1 (stereo unspecified) | inconclusive: 44.7 µM [inhibitor, partial curve]
